Results from article PMC8326979.
These are yes or no findings as the source states them, for the method shown. In cells and extracts the contact can be indirect. Some entries that bind do so weakly or less than the wild type.

Sequences of proteins named here, by UniProt entry; tags and fusion partners are left off.
UniProt P08106: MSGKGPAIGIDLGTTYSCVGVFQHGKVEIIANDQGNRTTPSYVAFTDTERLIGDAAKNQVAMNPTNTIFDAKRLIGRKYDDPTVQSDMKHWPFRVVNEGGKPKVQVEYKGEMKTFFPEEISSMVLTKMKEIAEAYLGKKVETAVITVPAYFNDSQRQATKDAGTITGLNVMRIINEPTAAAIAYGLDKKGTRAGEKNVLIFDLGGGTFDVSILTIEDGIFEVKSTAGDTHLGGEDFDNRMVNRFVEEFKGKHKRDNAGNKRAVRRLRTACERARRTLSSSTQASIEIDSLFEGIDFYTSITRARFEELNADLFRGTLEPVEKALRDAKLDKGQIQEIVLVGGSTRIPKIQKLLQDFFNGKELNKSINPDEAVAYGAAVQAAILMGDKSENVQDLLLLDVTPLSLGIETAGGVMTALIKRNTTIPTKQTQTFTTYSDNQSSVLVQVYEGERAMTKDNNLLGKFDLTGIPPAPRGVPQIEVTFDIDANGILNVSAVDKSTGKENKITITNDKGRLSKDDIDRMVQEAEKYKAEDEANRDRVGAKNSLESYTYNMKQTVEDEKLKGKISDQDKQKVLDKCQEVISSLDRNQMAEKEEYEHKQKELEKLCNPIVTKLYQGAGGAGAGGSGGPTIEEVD
UniProt P51913: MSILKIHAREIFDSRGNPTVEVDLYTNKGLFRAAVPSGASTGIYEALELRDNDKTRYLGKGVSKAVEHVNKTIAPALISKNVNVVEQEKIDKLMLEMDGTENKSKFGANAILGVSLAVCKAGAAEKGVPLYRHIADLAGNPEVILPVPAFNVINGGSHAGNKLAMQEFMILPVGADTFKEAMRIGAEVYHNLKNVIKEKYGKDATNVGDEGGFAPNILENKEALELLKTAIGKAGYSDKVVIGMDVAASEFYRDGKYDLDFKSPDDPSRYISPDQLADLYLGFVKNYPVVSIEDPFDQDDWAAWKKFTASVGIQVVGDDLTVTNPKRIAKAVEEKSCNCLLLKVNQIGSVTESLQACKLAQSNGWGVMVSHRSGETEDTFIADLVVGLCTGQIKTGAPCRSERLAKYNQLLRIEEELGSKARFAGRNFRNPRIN

Target: 70-kDa heat shock protein (HSP70) (chicken (endogenous in chicken embryo hepatocytes)) (UniProt P08106)
Test: co-IP; anti-HSP70 antibody on protein A + G agarose beads, pre-cleared chicken hepatocyte lysate after heat treatment, rotated overnight at 4°C; Western blot; non-specific rabbit IgG as negative control

- binding: binds
Substance: α-enolase (ENO1) (from UniProt P51913 1-434)
